PMC9654362

Biological target: 3xFlag-FTH1 (ferritin heavy chain, H Ferritin subunit) (human) (UniProt P02794)
Assay: affinity purification with mass spectrometry; 3xFlag-FTH1 immunoprecipitated from HEK-293T lysate on anti-FLAG M2 magnetic beads after pre-clearing on Protein G Dynabeads; washes with 150 and 300 mM NaCl in lysis buffer; elution with 3xFLAG peptide; SDS-PAGE, in situ trypsin digestion, nanoLC-MS/MS; empty vector as control

Substance | binding
HSPB1 protein (from UniProt P04792 1-205) | binds
Vimentin (from UniProt P08670 1-466) | binds

No constants are given. Whether binding was seen depends on the method and setting. Binding seen in cells or lysates may run through a third protein. A yes stands for co-enrichment or nearness to the bait. Other partners may have been found.
